Experimental data taken from US9266878B2, “Phosphatidylinositol 3-kinase inhibitors” (Gilead Calistoga LLC, priority 2012, dated 2016).
The match of structure and compound is tentative.

The chains behind the UniProt entries cited, without tags or fusion partners. Where a name states a change or a piece, a line headed by the entry shows the natural chain unless it says otherwise.
UniProt P42336, whole entry: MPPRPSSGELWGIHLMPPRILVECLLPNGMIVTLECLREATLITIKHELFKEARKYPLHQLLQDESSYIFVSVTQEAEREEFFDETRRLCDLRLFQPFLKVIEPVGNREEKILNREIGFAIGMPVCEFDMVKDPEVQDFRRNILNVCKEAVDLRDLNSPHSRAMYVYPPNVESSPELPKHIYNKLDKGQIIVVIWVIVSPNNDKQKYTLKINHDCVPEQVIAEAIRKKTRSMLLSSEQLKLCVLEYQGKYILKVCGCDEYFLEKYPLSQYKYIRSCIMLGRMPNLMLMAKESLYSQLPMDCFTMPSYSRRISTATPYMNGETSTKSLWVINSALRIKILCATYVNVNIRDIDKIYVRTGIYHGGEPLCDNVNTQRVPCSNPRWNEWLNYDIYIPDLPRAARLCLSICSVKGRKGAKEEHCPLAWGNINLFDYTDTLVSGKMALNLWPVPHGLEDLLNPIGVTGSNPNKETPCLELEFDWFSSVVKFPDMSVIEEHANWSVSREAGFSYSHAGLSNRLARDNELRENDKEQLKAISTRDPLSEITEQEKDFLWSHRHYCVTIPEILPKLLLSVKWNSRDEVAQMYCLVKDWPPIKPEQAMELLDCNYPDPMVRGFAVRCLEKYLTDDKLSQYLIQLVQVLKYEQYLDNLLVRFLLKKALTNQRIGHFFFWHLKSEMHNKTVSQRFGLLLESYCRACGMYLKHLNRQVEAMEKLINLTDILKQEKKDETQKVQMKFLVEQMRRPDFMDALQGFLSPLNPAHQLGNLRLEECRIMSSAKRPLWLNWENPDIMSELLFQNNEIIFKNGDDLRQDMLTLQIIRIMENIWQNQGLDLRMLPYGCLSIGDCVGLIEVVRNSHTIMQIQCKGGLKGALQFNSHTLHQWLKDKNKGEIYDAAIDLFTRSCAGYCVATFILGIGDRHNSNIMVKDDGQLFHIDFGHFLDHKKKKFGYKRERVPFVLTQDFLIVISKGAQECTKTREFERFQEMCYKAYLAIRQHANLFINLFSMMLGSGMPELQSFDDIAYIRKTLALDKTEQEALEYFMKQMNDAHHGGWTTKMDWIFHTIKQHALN
UniProt O00329, whole entry: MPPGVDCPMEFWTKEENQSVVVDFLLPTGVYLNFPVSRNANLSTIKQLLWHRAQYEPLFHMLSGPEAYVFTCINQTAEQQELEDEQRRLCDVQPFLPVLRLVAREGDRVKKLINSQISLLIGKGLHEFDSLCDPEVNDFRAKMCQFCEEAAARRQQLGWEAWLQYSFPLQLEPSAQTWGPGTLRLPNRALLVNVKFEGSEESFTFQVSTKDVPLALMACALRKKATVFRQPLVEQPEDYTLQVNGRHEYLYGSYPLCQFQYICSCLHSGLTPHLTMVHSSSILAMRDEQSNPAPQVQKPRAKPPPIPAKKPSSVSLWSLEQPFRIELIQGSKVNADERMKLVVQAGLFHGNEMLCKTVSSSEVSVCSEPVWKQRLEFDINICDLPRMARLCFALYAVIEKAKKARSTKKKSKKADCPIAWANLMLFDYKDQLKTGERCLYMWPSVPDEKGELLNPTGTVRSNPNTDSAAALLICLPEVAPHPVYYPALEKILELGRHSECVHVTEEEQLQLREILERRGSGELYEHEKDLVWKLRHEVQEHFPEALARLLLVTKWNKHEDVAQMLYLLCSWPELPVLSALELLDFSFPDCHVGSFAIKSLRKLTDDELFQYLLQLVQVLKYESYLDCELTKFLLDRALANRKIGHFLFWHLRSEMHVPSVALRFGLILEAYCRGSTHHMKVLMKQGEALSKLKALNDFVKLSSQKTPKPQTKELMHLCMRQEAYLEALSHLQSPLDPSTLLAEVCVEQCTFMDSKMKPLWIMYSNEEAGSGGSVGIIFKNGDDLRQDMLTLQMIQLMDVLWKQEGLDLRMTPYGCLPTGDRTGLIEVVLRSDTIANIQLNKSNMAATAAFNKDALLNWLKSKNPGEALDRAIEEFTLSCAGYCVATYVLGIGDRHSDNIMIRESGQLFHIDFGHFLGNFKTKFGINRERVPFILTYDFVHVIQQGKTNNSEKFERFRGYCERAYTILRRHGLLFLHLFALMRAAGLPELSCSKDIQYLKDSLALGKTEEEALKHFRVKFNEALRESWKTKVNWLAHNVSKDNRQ
UniProt P42338, whole entry: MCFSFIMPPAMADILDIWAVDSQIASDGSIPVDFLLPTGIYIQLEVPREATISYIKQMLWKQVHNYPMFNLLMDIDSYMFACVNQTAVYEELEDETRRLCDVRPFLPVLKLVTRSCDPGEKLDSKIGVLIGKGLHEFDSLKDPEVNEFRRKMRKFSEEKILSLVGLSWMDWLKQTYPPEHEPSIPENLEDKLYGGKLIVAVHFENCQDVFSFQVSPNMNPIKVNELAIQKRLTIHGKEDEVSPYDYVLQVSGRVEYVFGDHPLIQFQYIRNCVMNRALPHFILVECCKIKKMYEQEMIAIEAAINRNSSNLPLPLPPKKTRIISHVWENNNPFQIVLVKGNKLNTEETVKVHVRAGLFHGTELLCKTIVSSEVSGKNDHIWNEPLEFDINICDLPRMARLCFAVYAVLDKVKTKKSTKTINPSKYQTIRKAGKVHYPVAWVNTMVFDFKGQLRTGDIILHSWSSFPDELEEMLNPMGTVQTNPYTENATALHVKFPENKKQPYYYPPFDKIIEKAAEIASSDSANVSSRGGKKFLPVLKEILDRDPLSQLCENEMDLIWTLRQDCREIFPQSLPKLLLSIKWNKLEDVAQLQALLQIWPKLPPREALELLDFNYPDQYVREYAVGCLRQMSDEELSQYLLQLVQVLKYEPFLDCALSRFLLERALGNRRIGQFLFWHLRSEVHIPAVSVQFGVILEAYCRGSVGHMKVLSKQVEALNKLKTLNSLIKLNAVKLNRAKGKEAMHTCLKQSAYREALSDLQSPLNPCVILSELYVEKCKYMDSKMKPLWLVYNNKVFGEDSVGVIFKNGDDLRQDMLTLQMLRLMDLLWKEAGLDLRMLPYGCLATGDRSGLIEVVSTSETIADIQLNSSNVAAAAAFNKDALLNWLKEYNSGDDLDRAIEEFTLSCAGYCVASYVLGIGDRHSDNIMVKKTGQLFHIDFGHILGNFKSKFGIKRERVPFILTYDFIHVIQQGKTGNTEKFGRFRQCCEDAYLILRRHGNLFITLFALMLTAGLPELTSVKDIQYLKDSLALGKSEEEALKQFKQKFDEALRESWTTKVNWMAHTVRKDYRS
UniProt P48736, whole entry: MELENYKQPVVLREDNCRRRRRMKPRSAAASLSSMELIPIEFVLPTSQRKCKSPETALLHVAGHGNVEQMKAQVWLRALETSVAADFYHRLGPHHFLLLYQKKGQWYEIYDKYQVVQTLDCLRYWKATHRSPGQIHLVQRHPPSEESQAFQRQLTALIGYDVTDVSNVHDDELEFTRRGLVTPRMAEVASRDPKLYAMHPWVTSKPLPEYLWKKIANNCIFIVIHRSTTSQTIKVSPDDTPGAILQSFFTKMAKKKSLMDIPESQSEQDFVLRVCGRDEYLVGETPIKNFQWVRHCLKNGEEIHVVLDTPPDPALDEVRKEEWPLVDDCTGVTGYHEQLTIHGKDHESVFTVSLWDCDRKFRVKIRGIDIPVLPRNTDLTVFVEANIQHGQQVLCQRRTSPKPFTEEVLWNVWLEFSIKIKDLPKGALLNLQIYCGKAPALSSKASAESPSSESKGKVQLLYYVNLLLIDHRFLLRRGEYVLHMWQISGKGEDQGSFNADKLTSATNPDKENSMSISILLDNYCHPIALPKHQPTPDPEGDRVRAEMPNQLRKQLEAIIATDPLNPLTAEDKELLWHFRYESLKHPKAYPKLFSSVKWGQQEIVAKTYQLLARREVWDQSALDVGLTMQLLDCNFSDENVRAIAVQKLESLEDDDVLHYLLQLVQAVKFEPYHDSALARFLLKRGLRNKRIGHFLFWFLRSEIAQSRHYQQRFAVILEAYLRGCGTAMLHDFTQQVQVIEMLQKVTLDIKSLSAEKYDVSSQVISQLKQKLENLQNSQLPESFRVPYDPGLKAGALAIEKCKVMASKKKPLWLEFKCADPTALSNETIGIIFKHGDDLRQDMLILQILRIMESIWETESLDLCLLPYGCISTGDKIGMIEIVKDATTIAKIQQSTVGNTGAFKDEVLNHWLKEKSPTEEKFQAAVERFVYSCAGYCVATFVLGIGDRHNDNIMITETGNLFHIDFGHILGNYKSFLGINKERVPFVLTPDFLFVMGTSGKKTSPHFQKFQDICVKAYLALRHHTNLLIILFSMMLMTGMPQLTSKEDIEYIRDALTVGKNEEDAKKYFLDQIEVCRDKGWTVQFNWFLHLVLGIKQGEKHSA
UniProt P27986, whole entry partner: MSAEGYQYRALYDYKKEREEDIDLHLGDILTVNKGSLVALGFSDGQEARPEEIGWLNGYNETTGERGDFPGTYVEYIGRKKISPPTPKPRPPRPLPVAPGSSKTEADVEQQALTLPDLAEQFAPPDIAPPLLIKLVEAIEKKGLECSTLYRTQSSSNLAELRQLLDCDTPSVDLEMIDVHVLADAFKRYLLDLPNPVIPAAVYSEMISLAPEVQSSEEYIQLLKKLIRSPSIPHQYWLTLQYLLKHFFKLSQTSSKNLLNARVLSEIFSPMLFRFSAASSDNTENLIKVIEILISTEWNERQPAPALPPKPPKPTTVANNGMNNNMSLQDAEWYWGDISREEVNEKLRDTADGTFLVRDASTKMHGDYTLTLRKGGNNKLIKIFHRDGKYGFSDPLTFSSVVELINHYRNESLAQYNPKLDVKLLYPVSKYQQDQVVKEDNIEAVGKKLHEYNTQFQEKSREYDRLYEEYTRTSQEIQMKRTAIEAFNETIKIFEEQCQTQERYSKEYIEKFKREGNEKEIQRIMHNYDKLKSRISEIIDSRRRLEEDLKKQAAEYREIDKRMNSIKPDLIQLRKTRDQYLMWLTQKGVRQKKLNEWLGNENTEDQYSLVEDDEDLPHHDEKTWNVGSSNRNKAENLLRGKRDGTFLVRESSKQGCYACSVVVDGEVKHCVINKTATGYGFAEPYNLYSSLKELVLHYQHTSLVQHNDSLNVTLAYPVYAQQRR
UniProt Q8WYR1, whole entry partner: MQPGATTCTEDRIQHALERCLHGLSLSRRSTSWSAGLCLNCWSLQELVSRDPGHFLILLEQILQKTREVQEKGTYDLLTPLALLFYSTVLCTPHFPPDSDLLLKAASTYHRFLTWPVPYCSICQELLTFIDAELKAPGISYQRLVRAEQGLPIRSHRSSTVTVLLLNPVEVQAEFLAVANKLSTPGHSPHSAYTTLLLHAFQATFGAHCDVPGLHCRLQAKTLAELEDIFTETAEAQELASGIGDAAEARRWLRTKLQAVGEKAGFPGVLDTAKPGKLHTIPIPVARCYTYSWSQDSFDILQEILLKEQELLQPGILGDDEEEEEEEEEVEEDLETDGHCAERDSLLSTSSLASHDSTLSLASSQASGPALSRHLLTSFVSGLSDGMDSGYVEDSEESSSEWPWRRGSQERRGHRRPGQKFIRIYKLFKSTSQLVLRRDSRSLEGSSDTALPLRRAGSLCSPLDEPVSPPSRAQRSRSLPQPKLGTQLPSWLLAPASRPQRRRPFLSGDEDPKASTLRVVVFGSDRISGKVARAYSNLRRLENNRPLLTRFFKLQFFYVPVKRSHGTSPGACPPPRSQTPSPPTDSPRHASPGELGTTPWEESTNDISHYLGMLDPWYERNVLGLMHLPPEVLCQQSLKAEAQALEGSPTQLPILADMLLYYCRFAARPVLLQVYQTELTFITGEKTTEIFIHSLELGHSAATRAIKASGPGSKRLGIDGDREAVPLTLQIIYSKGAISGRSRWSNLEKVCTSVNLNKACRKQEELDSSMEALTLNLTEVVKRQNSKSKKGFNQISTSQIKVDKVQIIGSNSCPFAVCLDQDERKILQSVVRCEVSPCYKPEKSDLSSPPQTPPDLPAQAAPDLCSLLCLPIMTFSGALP

Legend:
Assay in all cases: Enzymatic activity of PI3K isoforms, TR-FRET assay (PIP3 formation)
PI3Kα = PI3Kα (Homo sapiens (Human), UniProt P42336); details: read-out: IC50-PIP-α, bound given in uM
PI3Kδ = PI3Kδ (Homo sapiens (Human), UniProt O00329); details: read-out: IC50-PIP-δ, bound given in nM
PI3Kβ = PI3Kβ (Homo sapiens (Human), UniProt P42338); details: read-out: IC50-PIP-β, bound given in uM
PI3Kγ = PI3Kγ (Homo sapiens (Human), UniProt P48736); details: read-out: IC50-PIP-γ, bound given in uM

SMILES: C[C@@H](Nc1ncnc(N)c1C#Cc1ccc(F)cn1)c1nc2cccc(Cl)c2c(=O)n1-c1cc(F)cc(F)c1
- IC50 (PI3Kα): > 1 µM
- IC50 (PI3Kδ): < 100 nM
- IC50 (PI3Kβ): > 1 µM
- IC50 (PI3Kγ): > 1 µM
